Data from paper PMC12139101.
Negatives hold for the conditions tested. For part of these data: At least one verdict rests on a figure or table, not on a statement of the authors. For part of these data: For at least one entry, the source does not settle the construct or the ends of the probe. For part of these data: Where cells or extracts were used, other partners may take part.

Experiments:
SP1 (human (K562 cells)) = SP1 (human (K562 cells)) (UniProt P08047); test: pull-down, immunoblot; conditions: Pull-down: 25 mM HEPES-KOH pH 7.4, 10.5 mM NaCl, 110 mM KCl, 1 mM MgCl2, 0.01 mM ZnCl2, 20% glycerol, 0.1% IGEPAL, 3% BSA, 1 mM DTT, salmon sperm DNA; protein in an extract; label: biotin; letters put together from the description
POLR2C (human) = POLR2C (human) (UniProt P19387); test: ELISA; conditions: up to 200 nM, 100 mM K+; ELISA: oligos folded in Tris-HCl pH 7.4, 100 mM KCl; ELISA buffer 100 mM KCl, 50 mM KH2PO4 pH 7.4, 3% BSA block, 1 h (room temperature stated for coating and blocking); recombinant protein; residues 1-275; protein details: His; label: biotin (printed at 5' end); folded or branched DNA

Sequence	binding result (SP1 (human (K562 cells)))	binding result (POLR2C (human))
CCAGAAGCGGGGGTGGGGCACTGACCCCGACAGGGGCCT (double strand) [HS2 bWT duplex]	no binding	–
CCAGAAGCGGGGGTGGGGCACTGACCCCGACAGGGGCCT [HS2_G4_WT (bWT)]	–	no binding
CCATAATGCCAAGCTTGAGCACTGATTCCGACACTAGACCT (double strand) [HS2 bMut duplex]	no binding	–
TGGGGGTGGAGGTGGGACAAGGGAAAGGGGTGA (double strand) [HS-40 aWT duplex]	no binding	–
TGGGGGTGGAGGTGGGACAAGGGAAAGGGGTGA [HS-40_G4_aWT]	–	no binding
TGTGTGTGGATGTGTGACAAGTGAAATGTGTGA (double strand) [HS-40 aMut duplex]	no binding	–
